Assay results published in paper PMC10874727, “The dual GGDEF/EAL domain enzyme PA0285 is a Pseudomonas species housekeeping phosphodiesterase regulating early attachment and biofilm architecture” (The Journal of Biological Chemistry, 2024).
No constants are given. Whether binding was seen depends on the method and setting.

Legend:
[1] = biological target: PA0285_(317-760), truncated PA0285 variant encompassing the GGDEF and EAL domains (Pseudomonas aeruginosa PAO1) (UniProt Q9I6K5); test: SEC; analytical SEC, Superdex 200 10/30 GL, 100 μl of 100 μM protein, 20 mM Hepes-Na pH 7.5, 150 mM NaCl, 4 °C, calibrated with ferritin, aldolase, conalbumin, ovalbumin, RNase A; both purified
[2] = biological target: PA0285_(353-508), the isolated GGDEF domain (Pseudomonas aeruginosa PAO1) (UniProt Q9I6K5); test: as above
[3] = biological target: PA0285_(194-760), construct encompassing the second PAS domain that directly precedes the GGDEF/EAL tandem (Pseudomonas aeruginosa PAO1) (UniProt Q9I6K5); test: SEC-MALS; MALS and differential refractive index detectors after the Superdex 200 10/30 GL column, 100 μl of 100 μM protein, 20 mM Hepes-Na pH 7.5, 150 mM NaCl, 4 °C, Debye fitting; both purified

B1: PA0285_(317-760), truncated PA0285 variant encompassing the GGDEF and EAL domains (domain or fragment, UniProt Q9I6K5 317-760)
chain: LSSIKRSENELDFLAHHDSLTGLPNRVLLRERIEQALENGKDRTVAGALLLIDLDHFKHINDSLGHTTGDMLLKEVSKRLQHQLDERCLLSRLGGDEFAILVENDDPEAVARLSQRILDGFNAPFDIHCQPIYISASLGVSLYPEDASDVDHLMQHADAALFQAKDSGRNAYAFYTRVLTARARAHVQVESALRHALEHDELRVHYQPVHDLASGRIVGVESLVRWQHPERGLVPPGEFVPVAEECGLIAALDNWVLKRACRQMREWQQRGVELEFVAVNVSSRLFNRGGLEERIANALEESGLEPRYLELEVTESAVMEDFEQSLNLLCRLRILGVNLAIDDFGTGYSSLMRLKRLPVHKLKIDQGFVAGLPGAVDDAAIARAIVALAQSMGLRVVAEGIEHQDQALFLREHGCDFGQGYWYGRPQPAEALRFDLPPVALPED
binding [1]: no binding (tested: 100 μM applied)

B2: PA0285_(353-508), the isolated GGDEF domain (domain or fragment, UniProt Q9I6K5 353-508)
chain: LENGKDRTVAGALLLIDLDHFKHINDSLGHTTGDMLLKEVSKRLQHQLDERCLLSRLGGDEFAILVENDDPEAVARLSQRILDGFNAPFDIHCQPIYISASLGVSLYPEDASDVDHLMQHADAALFQAKDSGRNAYAFYTRVLTARARAHVQVESA
binding [2]: no binding (tested: 100 μM applied)

B3: PA0285_(194-760), construct encompassing the second PAS domain that directly precedes the GGDEF/EAL tandem (domain or fragment, UniProt Q9I6K5 194-760)
chain: DITLQRLKEDHLRQAAAVFDSTREGVLVTDAQAVIVHVNPSFERITGYRSEDVLGKTPAILRSGRQDQAFYQRLWLALREQDVWSGEIWNRRKSGEIYPQWLHIRAVRNDQGQLTHYVGVFSDLSSIKRSENELDFLAHHDSLTGLPNRVLLRERIEQALENGKDRTVAGALLLIDLDHFKHINDSLGHTTGDMLLKEVSKRLQHQLDERCLLSRLGGDEFAILVENDDPEAVARLSQRILDGFNAPFDIHCQPIYISASLGVSLYPEDASDVDHLMQHADAALFQAKDSGRNAYAFYTRVLTARARAHVQVESALRHALEHDELRVHYQPVHDLASGRIVGVESLVRWQHPERGLVPPGEFVPVAEECGLIAALDNWVLKRACRQMREWQQRGVELEFVAVNVSSRLFNRGGLEERIANALEESGLEPRYLELEVTESAVMEDFEQSLNLLCRLRILGVNLAIDDFGTGYSSLMRLKRLPVHKLKIDQGFVAGLPGAVDDAAIARAIVALAQSMGLRVVAEGIEHQDQALFLREHGCDFGQGYWYGRPQPAEALRFDLPPVALPED
binding [3]: no binding (tested: 100 μM applied)
